Test results reported in PubChem BioAssay AID743255 (National Center for Advancing Translational Sciences (NCATS), 2014).
Among all 390,000 compounds or so, about 910 (0.23%) were called active. The inconclusive results got no clear call from the source; some entries with a clear call stand among them for comparison. The call rests on the fitted dose curve; in most records, active means well fitted inhibition curve with a large enough effect; inconclusive means small, poorly fitted or top-dose-only effect; inactive means no such curve, though single readings can be large or run the other way. Potencies beside an inconclusive call are fits to weak or partial responses and may not hold up.

Sequences of proteins named here, by UniProt entry; tags and fusion partners are left off. A change or cut given only in a name is not applied to a line headed by its entry.
UniProt O94782: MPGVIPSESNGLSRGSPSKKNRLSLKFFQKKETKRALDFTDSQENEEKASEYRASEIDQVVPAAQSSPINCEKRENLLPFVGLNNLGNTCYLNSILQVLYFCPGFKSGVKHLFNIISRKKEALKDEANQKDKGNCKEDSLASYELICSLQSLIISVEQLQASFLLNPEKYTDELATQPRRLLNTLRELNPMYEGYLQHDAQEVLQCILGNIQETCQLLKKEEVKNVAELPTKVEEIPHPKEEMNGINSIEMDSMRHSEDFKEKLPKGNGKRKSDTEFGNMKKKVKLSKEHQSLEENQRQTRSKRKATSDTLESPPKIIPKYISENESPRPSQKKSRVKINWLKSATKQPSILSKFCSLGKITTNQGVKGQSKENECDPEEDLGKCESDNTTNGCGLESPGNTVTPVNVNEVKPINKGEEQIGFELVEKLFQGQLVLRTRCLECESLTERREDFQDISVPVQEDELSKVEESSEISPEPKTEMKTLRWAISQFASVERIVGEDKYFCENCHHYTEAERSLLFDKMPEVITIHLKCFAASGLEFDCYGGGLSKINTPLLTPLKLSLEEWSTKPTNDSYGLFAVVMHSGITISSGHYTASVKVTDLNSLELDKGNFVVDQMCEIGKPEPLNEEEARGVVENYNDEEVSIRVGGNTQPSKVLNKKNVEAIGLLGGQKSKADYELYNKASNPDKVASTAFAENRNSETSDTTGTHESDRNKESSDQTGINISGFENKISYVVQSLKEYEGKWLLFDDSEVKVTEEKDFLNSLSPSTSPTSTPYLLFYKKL

target: Ubiquitin carboxyl-terminal hydrolase 1 (Homo sapiens) (UniProt O94782); test: Inhibitors of USP1/UAF1: Primary Screen; conditions: recombinant USP1/UAF1, Ub-Rhodamine cleavage fluorescence; activity change, negative = inhibition: at 57.1 µM (top of the series); further: nearly all actives have a fitted effect of over 60% in size
Outline: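 High-throughput fluorogenic screen: 1nM USP1/UAF1 complex, Ub-Rho substrate 150nM final, 50mM HEPES pH 7.8 with 0.5mM EDTA, 0.1 mg/ml BSA, 1mM TCEP and 0.01% Tween-20.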
On the % scale 0 is the no-effect control and ±100 the full control effect; potency means the concentration at half of the fitted maximal effect.

**Q.** How did the Potency turn out when `O=C(NCC1CCCO1)c1cc2cc(Cl)ccc2[nH]1` (stereo unspecified) was run?
**A.** inactive

**Q.** For `Cc1ccc(C)c(NC(=O)Nc2cc3c(cc2N2CCCCC2)n(C)c(=O)n3C)c1`, which Potency is on record?
**A.** inactive

**Q.** `O=C(c1ccncc1)N1CCN(c2cc(-c3ccccc3)nc3cc(-c4cccc(Cl)c4)nn23)CC1` was tested. Which Potency did it give?
**A.** inconclusive: 0.282 µM [inhibitor, full curve]

**Q.** Which Potency does the source give for `O=C(NCc1ccccc1)c1cccn1-c1nnc(N2CCCCC2)s1` here?
**A.** inconclusive: 31.6 µM [inhibitor, partial curve]

**Q.** How did the Potency turn out when `Fc1ccc(NC(=S)N2N=CCC2c2ccccc2)cc1` (stereo unspecified) was run?
**A.** inactive

**Q.** For `CC(C)=CCC/C(C)=C/CNC(=O)C[C@H]1C[C@H](C(=O)N(C(C)C)C(C)C)[C@@]2(C)c3[nH]c4cc(CCC(=O)N(C)C)ccc4c3CCN2C1=O`, which Potency is on record?
**A.** inconclusive: 50.1 µM [inhibitor, partial curve, poor fit]

**Q.** How did the Potency turn out when `COc1ccc(C2CC(c3cccs3)=Nc3ccccc3S2)cc1OC` (stereo unspecified) was run?
**A.** inconclusive: 17.8 µM [inhibitor, partial curve, poor fit]

**Q.** `O=C(N/N=C/c1ccc(-c2ccc(S(=O)(=O)Nc3ncccn3)cc2)o1)c1cc2ccccc2cc1O` was tested. Which Potency did it give?
**A.** inconclusive: 28.2 µM [inhibitor, single point]

**Q.** `Cc1ccc(CC(=O)Nc2ncc([N+](=O)[O-])s2)cc1` was tested. Which Potency did it give?
**A.** inactive

**Q.** With `O=c1cc(Br)c(O)c(Br)cc1Br` as the compound, how does the Potency read?
**A.** inactive

**Q.** For `Brc1cccc(-c2nnn3c2nc(NC2CCCCC2)c2ccccc23)c1`, which Potency is on record?
**A.** inconclusive: 7.94 µM [inhibitor, partial curve]

**Q.** How did the Potency turn out when `CCOc1ccc(NC(=O)c2cc3cc4ccc(C)cc4nc3o2)cc1` was run?
**A.** inconclusive: 6.31 µM [inhibitor, full curve, poor fit]

**Q.** For `O=C(c1ccc2c(c1)OCO2)[C@@H]1[C@@H]2C(=O)N(C3CCCCC3)C(=O)[C@@H]2C2c3ccccc3C=CN21` (stereo partly specified), which Potency is on record?
**A.** inconclusive: 39.8 µM [inhibitor, partial curve]

**Q.** How did the Potency turn out when `CCOC(=O)/C=c1/s/c(=C/c2ccccc2OC)c(=O)n1CC(=O)N1CCOCC1` was run?
**A.** inactive

**Q.** How did the Potency turn out when `COC(=O)[C@H](CC(C)C)NCc1cccc(CN[C@@H](CC(C)C)C(=O)OC)c1` was run?
**A.** inconclusive: 126 µM [inhibitor, partial curve, poor fit]

**Q.** For `COc1cccc(CNC(=O)c2cccc(N3CCCS3(=O)=O)c2)c1`, which Potency is on record?
**A.** inactive

**Q.** With `CCCCN1CC(=O)N2[C@H](c3ccc(OC)cc3)[C@@H]3C(=O)N(CC)C(=O)[C@@H]3[C@]2(Cc2ccccc2)C1=O` as the compound, how does the Potency read?
**A.** inconclusive: 25.1 µM [inhibitor, partial curve]

**Q.** Which Potency does the source give for `COc1cccc2sc(Nc3nnc(-c4ccc(F)cc4)o3)nc12` here?
**A.** inconclusive: 39.8 µM [inhibitor, partial curve]

**Q.** `CCc1ccc(NC(=O)C2CCCN(S(=O)(=O)c3ccc4c(c3)oc(=O)n4C)C2)cc1` (stereo unspecified) was tested. Which Potency did it give?
**A.** inactive

**Q.** How did the Potency turn out when `CCOC(=O)C(C)N1C(=O)S/C(=C\c2ccc(-c3ccccc3C(=O)O)o2)C1=O` (stereo unspecified) was run?
**A.** inconclusive: 44.7 µM [inhibitor, partial curve]

**Q.** For `CS(=O)(=O)c1ccc(NCCc2ccccn2)c([N+](=O)[O-])c1`, which Potency is on record?
**A.** inconclusive: 8.91 µM [inhibitor, single point]

**Q.** For `CN(C)S(=O)(=O)c1ccccc1C#N`, which Potency is on record?
**A.** inconclusive: 44.7 µM [inhibitor, single point]

**Q.** `Cc1cccc(C(C)C)c1NC(=O)COC(=O)CCN1C(=O)C2CC=CCC2C1=O` (stereo unspecified) was tested. Which Potency did it give?
**A.** inactive

**Q.** `COc1ccccc1NC(=O)C/C(C)=N/NC(=O)c1ccccn1` was tested. Which Potency did it give?
**A.** inconclusive: 7.08 µM [inhibitor, single point]

**Q.** For `Cc1cc2oc(C(=O)N(Cc3ccc(Cl)cc3)Cc3ccco3)c(C)c2cc1Cl`, which Potency is on record?
**A.** inconclusive: 0.708 µM [inhibitor, full curve, poor fit]

**Q.** With `CN(CC(=O)Nc1ccc(F)cc1)C(=O)COC(=O)c1nc(Cl)ccc1Cl` as the compound, how does the Potency read?
**A.** inconclusive: 0.126 µM [inhibitor, full curve, poor fit]

**Q.** How did the Potency turn out when `CC1CCCC(C)N1C(=O)COC(=O)CNC(=O)C12CC3CC(CC(C3)C1)C2` (stereo unspecified) was run?
**A.** inconclusive: 8.91 µM [inhibitor, partial curve, poor fit]

**Q.** For `Cc1ccc(Nc2cc(-n3nc(C)cc3C)ncn2)c(C)c1`, which Potency is on record?
**A.** inconclusive: 17.8 µM [inhibitor, partial curve]

**Q.** For `O=C(Cc1ccc(F)cc1)c1ccc(O)cc1O`, which Potency is on record?
**A.** inactive

**Q.** For `O=C1NC(=Nc2ccccc2Cl)S/C1=C\c1cc([N+](=O)[O-])ccc1O`, which Potency is on record?
**A.** inconclusive: 17.8 µM [inhibitor, partial curve]

**Q.** For `Cc1ccc(C)c(C(=O)N(Cc2nc(-c3ccc(Cl)cc3)no2)C(C)C)c1`, which Potency is on record?
**A.** inconclusive: 39.8 µM [inhibitor, partial curve, poor fit]

**Q.** `CCc1ccc2occ(CC(=O)N(Cc3ccccc3)C3CCS(=O)(=O)C3)c2c1` (stereo unspecified) was tested. Which Potency did it give?
**A.** inconclusive: 50.1 µM [inhibitor, partial curve, poor fit]

**Q.** For `CCCNS(=O)(=O)c1ccc2c(c1)n(C)c(=O)n2C`, which Potency is on record?
**A.** inconclusive: 10 µM [inhibitor, single point]

**Q.** With `O=C(Nc1cnn(Cc2ccc(Cl)cc2Cl)c1)c1noc2c1CCCC2` as the compound, how does the activity change, negative = inhibition read?
**A.** inconclusive: -29.2% [inhibitor]

**Q.** For `Cc1c(Br)c([N+](=O)[O-])nn1CCCC(=O)Nc1sc2c(c1C#N)CCC2`, which Potency is on record?
**A.** inactive

**Q.** How did the Potency turn out when `O=C(N/N=C/c1cccnc1)c1cc(-c2ccccc2Cl)nc2ccccc12` was run?
**A.** inactive

**Q.** `Cn1ccnc1C(=O)Cc1ccc([N+](=O)[O-])cc1` was tested. Which Potency did it give?
**A.** inconclusive: 0.251 µM [inhibitor, full curve, poor fit]

**Q.** `Cc1ccccc1CNC(=O)Cn1nc(C)c2nn(-c3ccc(Cl)cc3)c(C)c2c1=O` was tested. Which Potency did it give?
**A.** inconclusive: 0.794 µM [inhibitor, full curve]

**Q.** Which Potency does the source give for `CCOC(=O)c1sc2ccccc2c1S(=O)(=O)Nc1cc(OC)ccc1OC` here?
**A.** inconclusive: 50.1 µM [inhibitor, partial curve, poor fit]

**Q.** How did the Potency turn out when `N/C(=N\OC(=O)CCn1cccc(C(F)(F)F)c1=O)c1ccc(Cl)cc1` was run?
**A.** inconclusive: 1 µM [inhibitor, full curve, poor fit]

**Q.** With `CNC(=O)NC(=O)CN1C(=O)NC2(CCOc3ccccc32)C1=O` (stereo unspecified) as the compound, how does the Potency read?
**A.** inconclusive: 0.708 µM [inhibitor, full curve, poor fit]

**Q.** Which Potency does the source give for `O=C(Nc1cccc([N+](=O)[O-])c1)c1ccc2c(c1)OCCO2` here?
**A.** inactive

**Q.** `CCN1CCC[C@H]1CNCCCn1cnc2c(SC)ncnc21` was tested. Which Potency did it give?
**A.** inconclusive: 0.282 µM [inhibitor, full curve, poor fit]

**Q.** With `COc1ccc(NS(=O)(=O)c2cc(NC(=O)c3cccs3)ccc2N2CCCC2)cc1` as the compound, how does the Potency read?
**A.** inactive

**Q.** Which Potency does the source give for `O=S(=O)(CCN1CCN(c2ccccn2)CC1)c1ccc(F)cc1` here?
**A.** inactive

**Q.** `Cc1ccc(CNc2nc(-c3ccco3)nn2C(=O)c2ccccc2[N+](=O)[O-])cc1` was tested. Which Potency did it give?
**A.** inactive

**Q.** Which Potency does the source give for `CN(C)S(=O)(=O)c1cccc(C(=O)NCC(C)(C)CNC(=O)c2cccc(S(=O)(=O)N(C)C)c2)c1` here?
**A.** inconclusive: 5.01 µM [inhibitor, partial curve]

**Q.** How did the activity change, negative = inhibition turn out when `S=c1[nH]nc(-c2ccco2)n1/N=C/C(Cl)=C/c1ccccc1` was run?
**A.** inconclusive: -29.8% [inhibitor]

**Q.** With `O=C(COc1ccc(F)cc1Br)NCC1(N2CCCCC2)CCCCC1` as the compound, how does the Potency read?
**A.** inconclusive: 4.47 µM [inhibitor, partial curve]

**Q.** How did the Potency turn out when `NC(=O)c1ncn([C@@H]2O[C@H](CNCc3ccc(OCC(=O)Nc4ccccn4)cc3)[C@@H](O)[C@H]2O)n1` was run?
**A.** inconclusive: 11.2 µM [inhibitor, partial curve, poor fit]

**Q.** `Cc1ccc(C)c(NC(=O)CSc2nc3nccnc3c(=O)n2CCc2c[nH]c3ccccc23)c1` was tested. Which Potency did it give?
**A.** inactive

**Q.** With `COc1cccc2oc3cc(C#Cc4ccccn4)ccc3c(=O)c12` as the compound, how does the Potency read?
**A.** inconclusive: 11.2 µM [inhibitor, partial curve]

**Q.** How did the Potency turn out when `COc1cc(-c2nnc(SCc3ccccc3Cl)o2)cc(OC)c1OC` was run?
**A.** inactive

**Q.** `CN(CC(=O)Nc1ccc(OC(F)(F)F)cc1)S(=O)(=O)c1ccc2c(c1)CCC(=O)N2` was tested. Which Potency did it give?
**A.** inactive

**Q.** For `CCc1cccc(NC(=O)c2cnc(N3CCOCC3)c3ccccc23)c1`, which Potency is on record?
**A.** inconclusive: 12.6 µM [inhibitor, partial curve]

**Q.** Which Potency does the source give for `COc1ccc(S(=O)(=O)N2CCC(Oc3cccc(C(F)(F)F)c3)CC2)cc1OC` here?
**A.** inactive

**Q.** With `CCCCSc1nc2c(cnn2-c2ccc(C)c(C)c2)c(=O)[nH]1` as the compound, how does the activity change, negative = inhibition read?
**A.** inconclusive: -28.6% [inhibitor]

**Q.** How did the Potency turn out when `O=C(NC1CC1)c1ccc(CSCc2cccc(F)c2)o1` was run?
**A.** inconclusive: 28.2 µM [inhibitor, partial curve]

**Q.** How did the Potency turn out when `CN(C)c1cc(N/N=C\c2ccccc2)nc(N(C)C)n1` was run?
**A.** inconclusive: 35.5 µM [inhibitor, partial curve]

**Q.** With `Cc1cc(NC(=O)Nc2ccc3c(ccn3C)c2)sn1` as the compound, how does the Potency read?
**A.** inactive

**Q.** `Cc1ccc(Nc2c(-c3ccc(N4CCOCC4)cc3)nc3ccc(C)cn23)cc1` was tested. Which Potency did it give?
**A.** inconclusive: 35.5 µM [inhibitor, partial curve, poor fit]

**Q.** For `CCOc1ccc2nc(N(CCN(C)C)C(=O)/C=C/c3cccs3)sc2c1`, which Potency is on record?
**A.** inactive

**Q.** Which Potency does the source give for `[N-]=[N+]=CC(=O)C(c1ccccc1)(c1ccccc1)c1ccccc1` here?
**A.** inconclusive: 50.1 µM [inhibitor, partial curve, poor fit]

**Q.** Which Potency does the source give for `O=C1OCCN1C(=O)[C@H]1[C@H](c2ccc(Cl)cc2)C(c2ccc(F)cc2)=NN1c1ccccc1` here?
**A.** inconclusive: 44.7 µM [inhibitor, partial curve, poor fit]

**Q.** For `CCn1c(SCC#N)nc2ccccc2c1=O`, which Potency is on record?
**A.** inconclusive: 0.251 µM [inhibitor, full curve, poor fit]

**Q.** `CCOc1cccc2c1OC1(CCCCC1)N1N=C(c3cccnc3)CC21` (stereo unspecified) was tested. Which Potency did it give?
**A.** inconclusive: 44.7 µM [inhibitor, partial curve]
